Reference: PubChem BioAssay AID504834 (National Center for Advancing Translational Sciences (NCATS), 2011)
The campaign covered roughly 320,000 compounds. About 22,000 (6.9%) were called active. The inconclusive results got no clear call from the source; some entries with a clear call stand among them for comparison. Calls follow the shape of the dose curve; as a rule, active = well fitted inhibition curve with a large enough effect; inconclusive = small, poorly fitted or top-dose-only effect, or another doubt; inactive = no such curve, though single readings can be large or run the other way. Where the call is inconclusive, the potency comes from a doubtful curve fit.

Test: Primary qHTS for delayed death inhibitors of the malarial parasite plastid, 96 hour incubation
Conditions: P. falciparum luciferase reporter growth; series mostly up to 28.7 µM; activity change, negative = inhibition: at the top concentration
Procedure, shortened: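 P. falciparum expressing integrated firefly luciferase grown in erythrocytes (2% hematocrit, 0.05% parasitemia final) with compounds for 96 hours at 37 C, 5% CO2. Growth inhibition read as loss of luminescence after adding luciferase detection reagent.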
% is scaled to controls: 0 for no effect and ±100 for the full control effect; potency is read from the fitted curve at half-maximal effect.

Row | SMILES | Potency | activity change, negative = inhibition
1 | CCOc1ccccc1CNC(=O)C1CCN(c2nnc(C)c3c(C)n(-c4ccc(C)cc4)nc23)CC1 | inconclusive: 20.8 µM [inhibitor, partial curve, poor fit] | 
2 | CN(C(=O)COc1ccc(S(=O)(=O)N2CCOCC2)cc1[N+](=O)[O-])C1CCS(=O)(=O)C1 (configuration not stated) |  | inactive: -7.22%
3 | CCN(CC)C(=O)/C=C/c1ccc(OC)c(S(=O)(=O)N2CCCCC2)c1 |  | inactive: 10.2%
4 | COC(=O)CCC/C=C1/SCC(NC(=O)c2ccccc2)C1O (configuration not stated) | inconclusive: 3.7 µM [inhibitor, partial curve, poor fit] | 
5 | CC1CC(C)(C)NC(=S)N1CCC(=O)N1CCc2ccccc21 (configuration not stated) | inconclusive: 11.7 µM [inhibitor, single point] | 
6 | CC(=O)c1cc(F)c(N2CCN(C(=O)C(C)(C)C)CC2)cc1C | inconclusive: 18.5 µM [inhibitor, single point] | 
7 | CN(c1ccc(C(=O)NCCCn2ccnc2)cc1)S(C)(=O)=O |  | inactive: -10.6%
8 | Cc1noc(C)c1S(=O)(=O)N(CC(=O)Nc1ccc2c(c1)OCO2)c1ccc(C(C)C)cc1 | inconclusive: 0.0041 µM [inhibitor, full curve, poor fit] | 
9 | CC(=O)NCc1ccc(C(=O)CCl)s1 | inconclusive: 10.4 µM [inhibitor, partial curve, poor fit] | 
10 | O=C(C1CCCN1C(=O)c1cccs1)N1CCc2ccccc21 (configuration not stated) | inconclusive: 11.7 µM [inhibitor, single point] | 
11 | CCc1cccc(C)c1NC(=O)c1cc(C)oc1C | inconclusive: 5.22 µM [inhibitor, partial curve] | 
12 | Cn1cnnc1SCC(=O)Nc1ccc2nc(SCc3cccc4ccccc34)sc2c1 | inconclusive: 10.4 µM [inhibitor, single point] | 
13 | Clc1ccccc1CN(Cc1ccccc1)C(c1cccs1)c1nnnn1C1CCCC1 (configuration not stated) | inconclusive: 1.04 µM [inhibitor, partial curve, poor fit] | 
14 | Cc1nc2ccccc2c2ncccc12 | inconclusive: 5.86 µM [inhibitor, partial curve, poor fit] | 
15 | COCCC(=O)N1CCC(Oc2ccc(C(=O)N(C)C3CCCCC3)cc2)CC1 | inconclusive: 18.5 µM [inhibitor, single point] | 
16 | Cc1cc(Br)ccc1NC(=O)CN1C(=O)C2C3CC(c4ccccc4)C(C3)C2C1=O (configuration not stated) | inconclusive: 18.5 µM [inhibitor, single point] | 
17 | Cc1nn(CCC(=O)NCCc2ccccc2Cl)c(=O)c2nn(-c3ccccc3)c(C)c12 | inconclusive: 13.1 µM [inhibitor, single point] | 
18 | CCC(=O)Nc1ccc(S(=O)(=O)N2CCc3ccccc3C2)cc1 | inconclusive: 0.586 µM [inhibitor, partial curve, poor fit] | 
19 | CC1(C)CC(CNCCC(c2ccc(F)cc2)c2ccco2)CCO1 (configuration not stated) | inconclusive: 18.5 µM [inhibitor, single point] | 
20 | Cc1ccc(NC(=O)CS(=O)CC(=O)N(c2ccccc2F)C(C)C(=O)NC2CCCC2)cc1 (configuration not stated) |  | inactive: 25.9%
21 | Cc1cc(C)cc(OCC(=O)NC(C)c2ccccc2)c1 (configuration not stated) |  | inactive: -4.04%

Row | SMILES | Potency | activity change, negative = inhibition
22 | CSC1=NCCN1C(=O)C(C)Oc1ccccc1 (configuration not stated) | inconclusive: 0.0928 µM [inhibitor, partial curve, poor fit] | 
23 | COc1cccc(C(=O)OCC(=O)Nc2ccccc2N2CCOCC2)c1 | inconclusive: 2.62 µM [inhibitor, full curve, poor fit] | 
24 | Cc1cc(OCCCN2CCN(Cc3ccccc3)CC2)ccc1[N+](=O)[O-] | inconclusive: 13.1 µM [inhibitor, partial curve] | 
25 | CC(C)Cc1ccc(C#N)c(SCC(N)=O)n1 |  | inactive: 245%
26 | CC1CCN(S(=O)(=O)N2CCN(C(=O)c3ccc4c(c3)OCO4)CC2)CC1 | inconclusive: 5.22 µM [inhibitor, single point] | 
27 | COc1ccc(OC)c(C(=O)c2ccc(C(=O)Nc3ccc(NC(C)=O)cc3)cc2)c1 |  | inactive: -4.94%
28 | CCOC(=O)C1(Cc2ccc(OC)cc2)CCN(C(=O)c2cc(C)nn2C)CC1 |  | inactive: -1.56%
29 | Cc1ccc2c(c1)-n1c(nc3cc(F)ccc3c1=O)C(Cc1ccccc1)NC2=O (configuration not stated) | inconclusive: 6.57 µM [inhibitor, partial curve, poor fit] | 
30 | CCC(C)C(=O)Nc1ccccc1N1CCN(c2ccc(F)cc2)CC1 (configuration not stated) |  | inactive: 14.6%
31 | CCCCC(CCC(=O)Nc1ccc(C(=O)OCC)cc1)C(=O)O (configuration not stated) |  | inactive: -4.38%
32 | CC(Nc1oc(-c2ccco2)nc1C#N)c1ccccc1 (configuration not stated) | inconclusive: 18.5 µM [inhibitor, single point] | 
33 | CC(C)(C)n1nnnc1CN1C2CCC1CC(NC(=O)Nc1ccccc1)C2 (configuration not stated) | inconclusive: 0.131 µM [inhibitor, full curve, poor fit] | 
34 | Cc1ccccc1C(=O)N1CCC(C(=O)Nc2cc(C(F)(F)F)ccc2N2CCCC2)CC1 | active: 10.4 µM | 
35 | OCCNc1nc(N2CCOCC2)nc(N2CCOCC2)n1 | inconclusive: 18.5 µM [inhibitor, single point] | 
36 | O=S(=O)(NCC(c1ccco1)N1CCCCC1)c1ccccc1C(F)(F)F (configuration not stated) | inconclusive: 10.4 µM [inhibitor, partial curve, poor fit] | 
37 | COc1cc(NC(=O)Nc2cc(C)on2)cc(OC)c1OC |  | inactive: 30.7%
38 | Cc1cc(C)cc(C(=O)N(Cc2ccco2)c2c(N)n(Cc3ccccc3)c(=O)[nH]c2=O)c1 | inconclusive: 10.4 µM [inhibitor, single point] | 
39 | O=C(CCc1c[nH]c2ccccc12)N1CCN(c2ccc(O)cc2)CC1 | inconclusive: 0.0029 µM [inhibitor, full curve, poor fit] | 
40 | COc1ccc(C2/C(=C(/O)c3ccc4c(c3)CC(C)O4)C(=O)C(=O)N2Cc2ccncc2)cc1 (configuration not stated) |  | inactive: 3.97%
41 | COC(=O)C1=C(c2ccc(F)cc2OCc2ccccc2)C[C@@H]2CC[C@H]1N2C(=O)NCc1ccc(C(C)(C)C)cc1 | inconclusive: 2.62 µM [inhibitor, partial curve] | 
42 | COc1ccc(-c2cc(=O)oc3c(C)c(OCC(=O)NCCCn4ccnc4)ccc23)cc1 | inconclusive: 11.7 µM [inhibitor, single point] | 

From no. 31 as far as 33, as listed above:
Row | SMILES | Potency | activity change, negative = inhibition
31 | CCCCC(CCC(=O)Nc1ccc(C(=O)OCC)cc1)C(=O)O (configuration not stated) |  | inactive: -4.38%
32 | CC(Nc1oc(-c2ccco2)nc1C#N)c1ccccc1 (configuration not stated) | inconclusive: 18.5 µM [inhibitor, single point] | 
33 | CC(C)(C)n1nnnc1CN1C2CCC1CC(NC(=O)Nc1ccccc1)C2 (configuration not stated) | inconclusive: 0.131 µM [inhibitor, full curve, poor fit] | 
